Assay [1] has as its target T1, 绵羊MSTN蛋白 (绵羊 (sheep)) (UniProt O18830).
T1 sequence (looked up): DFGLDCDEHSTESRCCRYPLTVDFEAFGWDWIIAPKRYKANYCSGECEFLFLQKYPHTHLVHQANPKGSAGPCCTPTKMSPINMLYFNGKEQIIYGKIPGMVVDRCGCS
The assay can be described thus: ELISA, MSTN protein coated at 200 ng/well, nanobody in serial dilution, anti-alpaca secondary antibody. For orientation: In an ELISA, binding on a coated surface is turned into a signal by an enzyme label.

In assay [2] the target is T1, 绵羊MSTN蛋白 (绵羊 (sheep)). As to the kind of experiment: phage display panning and ELISA screening (earlier work of the same laboratory).

Results are given in words; binding and its absence hold for the method and conditions named. Some entries that bind do so weakly or less than the wild type.

B1: 双价绵羊MSTN纳米抗体 (VHH)
chain: GTQLQLVESGGGSVQAGGSLSLSCAASGYTYVSRYMGWFRQAPGNEREGVATIYTAGISTYYDASVKGRFTISKDNAKNTVYLQMNSLKPEDTAMYYCAATHDDYGGSGSRLSPASYAYWGQGTQVTVSSEPKTPKPQGPRGLGGGGSGGGGSGGGGSQLQLVESGGGSVQAGGSLSLSCAASGYTYVSRYMGWFRQAPGNEREGVATIYTAGISTYYDASVKGRFTISKDNAKNTVYLQMNSLKPEDTAMYYCAATHDDYGGSGSRLSPASYAYWGQGTQVTVSSEPKTPKPQGPRGLLE
On to B1, for which the binding entry in the assay with 绵羊MSTN蛋白 (绵羊 (sheep)) [1] is “binds”.

B2: 单价绵羊MSTN纳米抗体 (VHH)
VHH: QLQLVESGGGSVQAGGSLSLSCAASGYTYVSRYMGWFRQAPGNEREGVATIYTAGISTYYDASVKGRFTISKDNAKNTVYLQMNSLKPEDTAMYYCAATHDDYGGSGSRLSPASYAYWGQGTQVTVSS
On to B2, for which the binding entry with 绵羊MSTN蛋白 (绵羊 (sheep)) [2] is reported as “binds”.

The record behind these values is patent publication CN109942705A.
